We go through 1 substance from paper PMC10797291.

Protein sequences, listed by entry. Tags and fused reporters are not part of them. Lines headed by an entry give the natural chain unless they say otherwise; changes in a name come on top.
UniProt Q9C0B5: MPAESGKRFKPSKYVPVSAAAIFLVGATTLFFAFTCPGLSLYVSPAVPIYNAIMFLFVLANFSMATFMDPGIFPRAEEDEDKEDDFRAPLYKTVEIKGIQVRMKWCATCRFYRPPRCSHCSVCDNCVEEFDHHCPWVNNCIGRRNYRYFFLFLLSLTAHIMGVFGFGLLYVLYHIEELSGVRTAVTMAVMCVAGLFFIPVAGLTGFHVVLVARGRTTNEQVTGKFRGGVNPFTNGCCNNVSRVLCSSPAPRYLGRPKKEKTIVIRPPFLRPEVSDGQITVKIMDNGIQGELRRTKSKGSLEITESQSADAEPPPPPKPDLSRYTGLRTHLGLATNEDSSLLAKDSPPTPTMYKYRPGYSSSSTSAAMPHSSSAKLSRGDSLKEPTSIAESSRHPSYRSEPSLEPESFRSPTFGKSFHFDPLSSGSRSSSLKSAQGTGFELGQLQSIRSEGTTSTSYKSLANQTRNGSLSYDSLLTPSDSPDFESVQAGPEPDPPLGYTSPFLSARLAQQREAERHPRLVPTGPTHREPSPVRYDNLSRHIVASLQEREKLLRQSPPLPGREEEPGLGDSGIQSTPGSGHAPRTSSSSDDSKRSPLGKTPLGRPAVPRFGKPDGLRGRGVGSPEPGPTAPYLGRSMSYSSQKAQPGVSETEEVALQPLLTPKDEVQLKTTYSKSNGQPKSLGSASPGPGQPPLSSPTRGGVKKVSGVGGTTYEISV
UniProt Q05655: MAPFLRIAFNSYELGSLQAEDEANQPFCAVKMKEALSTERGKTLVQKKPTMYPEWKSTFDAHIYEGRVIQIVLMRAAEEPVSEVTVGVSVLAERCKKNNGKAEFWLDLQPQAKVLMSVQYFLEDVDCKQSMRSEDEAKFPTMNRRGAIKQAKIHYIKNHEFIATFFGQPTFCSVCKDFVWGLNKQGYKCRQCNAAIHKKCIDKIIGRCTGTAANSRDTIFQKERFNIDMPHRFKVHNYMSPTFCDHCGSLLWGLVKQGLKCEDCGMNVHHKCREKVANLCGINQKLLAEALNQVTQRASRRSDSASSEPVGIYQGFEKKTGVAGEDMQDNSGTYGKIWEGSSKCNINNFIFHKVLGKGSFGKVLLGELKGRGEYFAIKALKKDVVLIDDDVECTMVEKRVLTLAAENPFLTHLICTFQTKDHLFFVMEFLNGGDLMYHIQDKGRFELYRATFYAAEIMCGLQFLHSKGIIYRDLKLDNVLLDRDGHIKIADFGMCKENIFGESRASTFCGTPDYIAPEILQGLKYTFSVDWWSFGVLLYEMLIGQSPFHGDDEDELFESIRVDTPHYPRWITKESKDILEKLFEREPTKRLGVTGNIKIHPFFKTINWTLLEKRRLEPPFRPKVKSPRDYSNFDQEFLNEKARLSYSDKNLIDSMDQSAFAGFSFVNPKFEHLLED

No constants are given. Whether binding was seen depends on the method and setting. In cells and extracts the contact can be indirect. Some entries that bind do so weakly or less than the wild type.

The target in the test is zinc finger DHHC-type palmitoyltransferase 5 (ZDHHC5), HA-tagged (UniProt Q9C0B5). As to the kind of experiment: co-IP; ZDHHC5-HA precipitated with HA-tag beads overnight at 4 °C from NP-40 lysate of transfected 293T cells; blots for HA, PKCδ and β-actin; cells treated with 2.5 μM ART.

On to “protein kinase Cδ (PKCδ) (from UniProt Q05655 1-676) (enzyme)”, for which the binding result is recorded as “binds”.
